Measurements: PubChem BioAssay AID504467 (National Center for Advancing Translational Sciences (NCATS), 2011)
In all, about 330,000 compounds went through this assay and about 7,700 (2.3%) were called active. The inconclusive results got no clear call from the source; some entries with a clear call stand among them for comparison. Calls follow the shape of the dose curve; as a rule, active = well fitted inhibition curve with a large enough effect; inconclusive = small, poorly fitted or top-dose-only effect, or effect the other way; inactive = flat fitted curve, though single readings scatter. Potencies of inconclusive entries are doubtful fits and often do not repeat.

Assay: qHTS screen for small molecules that inhibit ELG1-dependent DNA repair in human embryonic kidney (HEK293T) cells expressing luciferase-tagged ELG1; also: nearly all actives have a fitted effect of over 55% in size
Details: HEK293T ELG1-luciferase reporter, luminescence, 16 h, DNA damage induced by 5-fluorouridine; series mostly up to 46.1 µM
Procedure, shortened: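 Luminescence from the luciferase reporter, measured 30 min after ONE-Glo reagent at room temperature, was the read-out. Beforehand, 2,000 cells per well were exposed for 16 hr at 37 °C to 5-fluorouridine together with compound or vehicle.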
Potency is read from the fitted curve at half-maximal effect.

Compound	Potency
Cc1cc(=O)[nH]c(=S)n1-c1ccccc1	inconclusive: 10.3 µM [activator, single point]
CC(=O)c1cc2c(cc1NS(=O)(=O)c1ccccc1)OCO2	inconclusive: 18.4 µM [activator, single point]
O=S(=O)(Nc1ccc(-n2cnnn2)cc1)c1ccc(Cl)cc1	inconclusive: 25.9 µM [activator, single point]
CCn1cc(/C=C/C(=O)NCc2c(C)nn(C)c2C)cn1	inconclusive: 16.4 µM [activator, partial curve, poor fit]
CC1=NN(c2ccccc2)C(=O)/C1=C/c1cc2cc(C)ccc2nc1N1CCCCC1	inconclusive: 20.6 µM [activator, partial curve]
O=C(NCc1ccccc1)c1ccc(S(=O)(=O)NCc2ccco2)cc1	inactive
COc1ccc2c(c1)c(=O)c(C(=O)c1ccc(F)cc1)cn2CC(=O)Nc1ccc(F)cc1	inactive
Cc1ccccc1CN1CCc2cc([N+](=O)[O-])ccc21	inconclusive: 5.8 µM [inhibitor, partial curve]
Cc1ccc2oc(/N=C(\N)NC(=O)C(C)(C)C)nc2c1	inconclusive: 0.073 µM [activator, full curve]
COc1cccc(C(=O)NCC(=O)OCC(=O)Nc2ncc(Cl)cc2Cl)c1	inconclusive: 18.3 µM [activator, single point]
Cc1cccc2c1CC(C)(C)N/C2=C\C(N)=O	inconclusive: 13 µM [inhibitor, partial curve]
CCCCCCc1ccc(N2C[C@H](CCCCC)[C@@H](CC(=O)NCc3ccccc3)C2=O)cc1	inactive
CCC(=O)NC(=S)Nc1ccc(NC(=O)COc2ccc([N+](=O)[O-])cc2)cc1	inconclusive: 23.1 µM [inhibitor, single point]
CS(=O)(=O)c1ccc(Cl)c(NC(=O)COC(=O)CNC(=O)c2sc3ccccc3c2Cl)c1	inactive
Cc1oc2cc3oc(=O)c(CCC(=O)N[C@H](C(=O)O)C(C)C)c(C)c3cc2c1C	inconclusive: 25.9 µM [activator, single point]
CCc1c(C(=O)Nc2cc(C)ccc2OC)[nH]c(C)c1C(C)=O	inactive
COc1ccc(OCCOC(=O)CNS(=O)(=O)c2ccc(SC)c([N+](=O)[O-])c2)cc1	inactive
O=C(Nc1nc(-c2ccccc2)cs1)C1c2ccccc2Oc2ccccc21	inactive
Cc1cc(Cl)c(S(=O)(=O)N2CCN(c3cccc(C)c3C)CC2)cc1OCC(N)=O	inconclusive: 29.1 µM [inhibitor, single point]
Cc1ccc(NC(=O)CCNC(=O)c2ccc(Br)cc2)cc1S(=O)(=O)N1CCCCCC1	inconclusive: 29.1 µM [inhibitor, single point]
Cc1ccc(C)c(N2CCN(C(=O)CCc3nc(-c4cccc(Cl)c4)no3)CC2)c1	inconclusive: 18.3 µM [activator, partial curve]
CNc1nc2c(c(=O)n(C)c(=O)n2C)n1Cc1ccccc1	inactive
Cc1ccc2cc(CN(Cc3ccco3)C(=O)c3ccccc3)c(=O)[nH]c2c1C	inactive

Copied from the list:
COc1ccc2c(c1)c(=O)c(C(=O)c1ccc(F)cc1)cn2CC(=O)Nc1ccc(F)cc1 – Potency: inactive
CNc1nc2c(c(=O)n(C)c(=O)n2C)n1Cc1ccccc1 – Potency: inactive

The listing continues.

Compound	Potency
Cc1ccc(S(=O)(=O)N2CC=C(c3ccc(F)cc3)CC2)cc1	inactive
O=C(Cc1cccs1)N1CCCC(c2nc3c(nnn3Cc3ccc(F)cc3)c(=O)[nH]2)C1 (stereo not drawn)	inconclusive: 16.4 µM [inhibitor, partial curve, poor fit]
CC(=O)Nc1ccc(S(=O)(=O)NCCN2CCNC2=O)cc1Cl	inactive
COc1cccc(CC2(CO)CCCN(CC3=Cc4cc(OC)ccc4OC3)C2)c1 (stereo not drawn)	inconclusive: 23.1 µM [inhibitor, partial curve, poor fit]
COc1ccc(C2C(C#N)=C3NC(=O)c4c(sc5c4CCCCC5)N3C3=C2C(=O)CC(C)(C)C3)cc1 (stereo not drawn)	inconclusive: 13 µM [inhibitor, partial curve, poor fit]
Cc1cc(=O)c2ccccc2n1CC(=O)NCc1ccccc1	inconclusive: 20.6 µM [inhibitor, partial curve]
O=C(Nc1ccc(N2CCCCCC2)cc1)c1ccccc1Cl	inconclusive: 13 µM [activator, partial curve]
COCCn1c(=NC(=O)c2cc3ccccc3oc2=O)sc2cc(S(N)(=O)=O)ccc21	inactive
O=C(CSc1nc2scc(-c3ccccc3)c2c(=O)[nH]1)Nc1ccccc1	inconclusive: 29.1 µM [inhibitor, partial curve, poor fit]
Cc1csc(N(C)C(=O)CSc2nnc(COc3cccc4ccccc34)o2)n1	inactive
Cc1ccc(-c2onc(C)c2C)cc1S(=O)(=O)N1CC(C)Oc2ccccc21 (stereo not drawn)	inconclusive: 20.6 µM [inhibitor, single point]
O=C(CSc1nc2ccccc2c(=O)n1Cc1ccco1)N1CCCCCC1	inconclusive: 29.1 µM [inhibitor, single point]
C[C@@H](OC(=O)c1[nH]cnc1C(=O)NCc1ccc(CNC(=O)OC(C)(C)C)cc1)c1ccccc1	active: 13 µM
O=C(C1CCC(=O)N1Cc1cccs1)N1CCOCC1 (stereo not drawn)	inconclusive: 16.4 µM [activator, partial curve, poor fit]
CNc1c(N)c(=O)oc2ccccc12	inconclusive: 16.4 µM [activator, single point]
C=CCN(CC(O)c1cccc([N+](=O)[O-])c1)C(C)CCc1ccccc1 (stereo not drawn)	inactive
CCCCCc1c(C)nc(Nc2nc(C)c3cc(OC)ccc3n2)[nH]c1=O	inconclusive: 9.2 µM [inhibitor, partial curve, poor fit]
Cc1nnc2sc(SCc3ccccc3Cl)nn2c1=O	inconclusive: 29.1 µM [activator, single point]
O=C(O)c1c2c(nc3ccccc13)/C(=C/c1ccccc1[N+](=O)[O-])CCC2	inconclusive: 20.6 µM [activator, partial curve, poor fit]
O=C(COc1ccc(S(=O)(=O)N2CCCC2)cc1)NCCC1=CCCCC1	inconclusive: 18.4 µM [inhibitor, single point]
Cc1c(C)c(C)c(S(=O)(=O)n2[nH]c(=O)c(CCO)c2C)c(C)c1C	inconclusive: 32.6 µM [inhibitor, single point]
Cc1ccc(/C(N)=N/OC(=O)c2ccco2)cc1	inconclusive: 2.06 µM [activator, full curve]
CCN(CC)C(=O)[C@H]1CC(CC(=O)NCC23CC4CC(CC(C4)C2)C3)C(=O)N2CCc3c([nH]c4ccc(OC)cc34)[C@]12C (stereo partly drawn)	active: 23.1 µM

Compound	Potency
COc1cccc(NC(=O)CN(C)C(=O)c2cccc(NS(=O)(=O)c3ccccc3)c2)c1	inconclusive: 11.2 µM [inhibitor, partial curve, poor fit]
CCCCOC(=O)Nc1nnc(C(C)C)s1	inconclusive: 11.6 µM [activator, partial curve]
Cc1cc(NC(=O)CSc2cn(CCNC(=O)c3ccc(F)cc3)c3ccccc23)no1	inactive
Oc1ccc(N=Cc2c(O)ccc3ccccc23)cc1	inactive
Cc1ccc(CSc2nc3c(c(N(C)C)n2)CCCC3)cc1	inactive
O=C(Nc1ccc(O)c2c(=O)cc(-c3ccccc3Cl)oc12)c1ccc(Cl)c(Cl)c1	inactive
Cn1c(SCC(=O)Nc2ccc(F)cc2)nc2c([nH]c3ccccc32)c1=O	inconclusive: 20.6 µM [activator, single point]
COC(=O)C(Cc1ccc(O)cc1)NC(=O)C(C)NC(=O)c1ccc(C(C)(C)C)cc1 (stereo not drawn)	inconclusive: 32.6 µM [activator, partial curve, poor fit]
Cc1ccc(S(=O)(=O)N2CCOCC2)cc1C(=O)OCC(=O)c1c(N)n(C)c(=O)n(C)c1=O	inconclusive: 4.61 µM [inhibitor, single point]
NC(=O)c1sc2nnc(-c3ccccc3)c(-c3ccccc3)c2c1N	inconclusive: 29.1 µM [inhibitor, single point]
CCOc1ccc2oc(C(=O)Nc3ccc4c(c3)OCO4)c(C)c2c1	inconclusive: 18.3 µM [activator, single point]
Cc1nc(SCC(=O)Nc2c(C)n(C)n(-c3ccccc3)c2=O)n[nH]1	inactive
N#Cc1cccnc1Oc1ccccc1	inconclusive: 7.3 µM [activator, partial curve, poor fit]
O=C(N=Nc1ccc(NOC(=O)c2ccccc2Br)cc1)c1ccccc1O	inconclusive: 2.91 µM [inhibitor, partial curve, poor fit]
COc1ccc(-n2nnnc2SCC(=O)NC(=O)Nc2ccc3c(c2)OCCO3)cc1	inconclusive: 18.4 µM [activator, partial curve]
Cc1cccn2c(=O)c(/C=C(\C#N)C(N)=O)c(N3CCN(c4cccc(Cl)c4)CC3)nc12	inconclusive: 20.6 µM [inhibitor, single point]
CC1CCCN(C(=O)c2cc(-c3cccs3)nc3ccccc23)C1 (stereo not drawn)	inconclusive: 23.1 µM [inhibitor, partial curve]
CSc1ccccc1-c1nnc(-c2ccc(C)cc2)o1	inconclusive: 5.8 µM [activator, partial curve]
COc1ccc(N=Cc2ccc[nH]2)cc1	inactive
O=C(NCc1ccncc1)Nc1ccc2c(c1)OCO2	inconclusive: 29.1 µM [activator, single point]
Cc1ccc(NC(=O)c2ccc([N+](=O)[O-])o2)c(C)c1	inactive
Cc1cc(C(C#N)c2ccc(Cl)cc2)c(Cl)cc1NC(=O)c1cc(I)cc(I)c1O (stereo not drawn)	inactive
